# This is one part of the list.
# What was measured:
# Test in all cases: NMR binding call after quantification (hit when 2 of 3 NMR criteria are met) (binary (1 = binding, 0 = not binding)); higher = binding
# Conditions in all cases: RNA concentration 10 µM; fragment concentration 200 µM; 293 K
# [1] = tested on: SARS-CoV-2 5'-UTR RNA
# [2] = tested on: SARS-CoV-2 5_SL1 RNA
# [3] = tested on: SARS-CoV-2 5_SL1234 RNA
# [4] = tested on: SARS-CoV-2 5_SL4 RNA
# [5] = tested on: SARS-CoV-2 5_SL5 RNA
# [6] = tested on: SARS-CoV-2 5_SL5a RNA
# [7] = tested on: SARS-CoV-2 5_SL5b+c RNA
# [8] = tested on: SARS-CoV-2 5_SL5stem RNA
# [9] = tested on: SARS-CoV-2 5_SL6 RNA
# [10] = tested on: SARS-CoV-2 5_SL2+3 RNA
Compound,NMR binding call [1],NMR binding call [2],NMR binding call [3],NMR binding call [4],NMR binding call [5],NMR binding call [6],NMR binding call [7],NMR binding call [8],NMR binding call [9],NMR binding call [10]
CC(=O)NCc1ncc[nH]1,0,0,0,0,0,0,0,0,0,–
CC(N)C(=O)Nc1cc(C(F)(F)F)n[nH]1.Cl (centres undefined),0,0,0,0,0,0,0,0,0,–
COC(C)c1nc(-c2cnoc2C)cs1 (centres undefined),0,0,0,–,0,0,0,0,0,–
Cl.Cl.c1cn(CC2CCCCN2)nn1 (centres undefined),0,0,0,0,0,0,0,0,0,–
Nc1nccc(-c2ccc(Cl)cc2)n1,1,0,0,–,1,0,1,0,0,–
CC(C)(C)C(=O)NCCc1nc2ccccc2[nH]1,0,0,0,0,0,0,0,0,–,–
OCCN1CCOCC1,0,0,0,0,–,0,0,0,0,–
Cc1cc2ncn(CC(N)=O)c2cc1C,0,0,–,0,0,0,0,0,0,0
CCC(NC)c1ccncc1 (centres undefined),0,0,–,0,0,0,0,0,0,0
COCC1CN(c2ccccn2)CCO1 (centres undefined),0,0,0,0,0,0,0,0,0,–
Cc1c(Cl)cccc1NC(=O)CN.Cl,1,0,0,0,0,0,0,0,0,–
Cc1nc2ccccc2n1CCC(N)=O,0,0,0,0,0,0,0,0,0,–
COC(=O)Nc1ccc(Cc2ccncc2)cc1,0,0,0,0,–,–,0,–,–,–
Cc1cnc(N2CCNCC2)s1.Cl.Cl,0,0,0,0,0,0,0,0,0,–
Cc1n[nH]c(C)c1S(=O)(=O)N(C)C,0,0,0,0,0,0,0,0,0,–
CC(C)C(=O)Nc1ccc(N2CCCCC2)cc1,0,0,0,0,0,0,0,0,0,–
CCNc1ccc(C)nn1,0,0,0,0,0,0,0,–,0,–

Compound,NMR binding call [1],NMR binding call [2],NMR binding call [3],NMR binding call [4],NMR binding call [5],NMR binding call [6],NMR binding call [7],NMR binding call [8],NMR binding call [9],NMR binding call [10]
CC(=O)Nc1ccc(CN2CCOCC2)cc1,0,0,0,0,0,0,0,0,0,–
COc1ccc(NCc2ccccc2O)cc1,0,0,0,0,0,0,0,0,–,–
Cn1cc(Oc2ncncc2Cl)cn1,0,0,0,0,0,0,0,0,0,–
Nc1ncncc1-c1ccc(Cl)cc1,0,0,–,0,0,0,0,–,0,0
CN(C)c1ccc(CNn2cnnc2)cc1,0,0,0,0,0,0,0,0,0,–
COC(=O)c1ccccc1NC(=O)N1CCCC1,0,0,0,0,0,–,–,0,0,–
O=C(NCCc1ccncc1)c1ccccc1F,0,0,–,0,–,–,0,–,0,0
Cc1occc1C(=O)Nc1cc(C(C)(C)C)on1,0,0,0,0,0,–,–,–,–,–
CC(C)Nc1cccnc1,0,0,0,0,0,0,0,0,0,–
OCC1CN(Cc2ccccc2)CCO1 (centres undefined),0,0,0,–,–,0,0,0,0,–
O=C(CCCc1ccccc1)N1CCOCC1,0,0,–,0,0,0,0,0,0,0
CC(N)c1nc(Cc2ccccc2)no1.Cl (centres undefined),0,0,0,0,0,0,0,0,0,–
FC(F)(F)c1ccc(CN2CCOCC2)cc1,0,0,0,0,0,0,0,0,–,–
O=C(NCCN1CCCC1=O)Nc1ccccc1,0,0,–,0,0,0,0,0,0,0
CN(C)Cc1ccc(C#N)cc1,0,0,0,0,0,0,0,0,0,–
c1ccc(SCCN2CCOCC2)cc1,0,0,0,0,0,0,–,0,0,–
N#Cc1ccc(Cn2cnc3ccccc32)cc1,0,0,–,0,0,–,0,–,–,0

# Individual results from the entries so far:
# `Cc1occc1C(=O)Nc1cc(C(C)(C)C)on1` – NMR binding call [1]: 0
# `OCCN1CCOCC1` – NMR binding call [6]: 0

# Source: the supplement of paper PMC8426693
